The target of the series is FLAG-ZBTB7A ZF1-4 (UniProt O95365). Description: EMSA. The following applies: poly dIdC; EMSA: 10 mM HEPES pH 7.8, 50 mM KCl, 5 mM MgCl2, 1 mM EDTA, 5% glycerol, 1 mM DTT, 0.1 mg/mL BSA, 0.05 mg/mL poly dIdC, 4 C; protein in an extract; residues 370-500; protein details: FLAG; label: 5'-32P on forward strand.

Protein sequences, listed by entry. Tags and fused reporters are not part of them. Residues count along the entry.
UniProt O95365, 370-500: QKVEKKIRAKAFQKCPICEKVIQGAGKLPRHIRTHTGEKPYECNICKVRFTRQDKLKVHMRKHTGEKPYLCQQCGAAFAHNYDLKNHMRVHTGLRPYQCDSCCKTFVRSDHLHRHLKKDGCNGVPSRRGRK

For at least one entry, the source does not settle the construct or the ends of the probe. Results from cells or extracts need not show a direct contact.

Take “TGGGGGCCCCTTCCCCACACTAT (double strand) [-200γ WT EMSA probe]”: the binding result is recorded as “binds”.

These data come from PMC9344028.
